According to the RNAGym collection of RNA variant scans (doi:10.1126/science.aae0568):
This sample is rich in variants without activity.

B1: tRNA (parent)
chain: GUUCCGUUGGCGUAAUGGUAACGCGUCUCCCUCCUAAGGAGAAGACUGCGGGUUCGAGUCCCGUACGGAACG

Variants of: B1
Assay: yeast fitness relative to wild type (ratio to wild type); higher = fitter; tRNA-Arg(CCU), competitive growth, 37 C, YPD
Outline: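 A pool of Saccharomyces cerevisiae strains, each with a tRNA-Arg(CCU) gene variant at the native genomic locus, was competed in YPD at 37°C for 24 hours across six parallel replicates. The variants had been chemically synthesised at a 3% per-site mutation rate over 69 sites, and gene amplicons before and after competition were read by 100-nucleotide paired-end sequencing. Darwinian fitness relative to wild type rested on changes in genotype frequencies. Genotypes required ≥ 100 starting reads, and estimates < 0.5 were set to 0.5.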

GUUCCGUUGGCGUAAUGAUAACGCGUCUCCCUCCUAGGGAGAAGACUGCGGGUUCGAGUCUCGUACGGAACG [G18A A37G C61U] and GUUCCGUUGGCGUAAUGAUAACGCGUCUCCCUCCUAAGGAGACGAAUCCGGGUUCGAGUCCCGUACGGAACG [G18A A43C C46A G48C] cannot be ordered by yeast fitness: ≤ 0.5 for the first, ≤ 0.5 for the second.

Going from GUUCCGUUGGCGUAAUGAUAACGCGUCUCCCUCCUAAGGAGACGACUGCGGGUUCGAGUCGCGUACGGAACG [G18A A43C C61G] to GUUCCGUUGGCGUAAUGAUAACGCGUCUCCCUCCUAAGGAGAUGACUGCGGGUUCGAGUCCCGUACGGAACG [G18A A43U], the yeast fitness rises from ≤ 0.5 to 0.637.

First: GUUCCGUUGGCGUAAUGAUAACGCGUCUCCCUCCUAAGGAGAAGACUGCGGGUUCGAGUCCCGUACGGAGCG [G18A A70G]
Second: GUUCCGUUGGCGUAAUGAUAACGCGUCUUCCUCCAAAGGAGAAGACUGCGGGUUCGAGUCCCAUACGGAACG [G18A C29U U35A G63A]
The yeast fitness of the first is higher: 0.646 for the first, ≤ 0.5 for the second.

GUUCCGUUGGCGUAAUGAUAACGCGUCUCUCUCCUAAGGGGAAGAUUGCGGGUUCGAGUCCCGUACGGAACG [G18A C30U A40G C46U] and GUUCCGUUGGCGUAAUGAUAACGCGUCUCUCUCCUAAGGAGAAGACUGCGGGUUGGAGUCCCGUACGGAACG [G18A C30U C55G] cannot be ordered by yeast fitness: ≤ 0.5 for the first, ≤ 0.5 for the second.

Compared with GUUCCGUUGGCGUAAUGAUAACGCGUCUCCUUCCUAAGGAGAAGACUGCGGGUUCGAGUCCCGUACGGAACG [G18A C31U], GUUCCGUUGGCGUAAUGAUAACGCGUCUCCUUCCUAAGGAAAAGACUGCGGGUUCGAGUCCCGUACGGAACG [G18A C31U G41A] is lower in yeast fitness: 0.663 for the first, 0.647 for the second.

GUUCCGUUGGCGUAAUGAUAACGCGUCUCCCUUCUAUGGAGAAGACUGCGGGUUCGAGACCCGUUCGGAACG [G18A C33U A37U U59A A65U] and GUUCCGUUGGCGUAAUGAUAACGCGUCUCCCUUCUAAGGAGAAGACUGCGGGUUCGAGUCCCAUAUGGAACG [G18A C33U G63A C66U] cannot be ordered by yeast fitness: ≤ 0.5 for the first, ≤ 0.5 for the second.

First: GUUCCGUUGGCGUAAUGAUAACGCGUCUCCCUCCUAAGGAGAAGAUUGCGGGUUCGAGCCCCGUACGAAACG [G18A C46U U59C G68A]
Second: GUUCCGUUGGCGUAAUGAUAACGCGUCUCCCUCCUAAGGAGAAGACUGUGCGUUCGAGUCCCGUGCGGAACG [G18A C49U G51C A65G]
The yeast fitness of the first is higher: 0.53 for the first, ≤ 0.5 for the second.

GUUCCGUUGGCGUAAUGAUAACGCGUCUCCCUCCUAAGCAGAAGACUGCGGGUUCGAGGCCCGUACGGAACG [G18A G39C U59G] and GUUCCGUUGGCGUAAUGAUAACGCGUCUCCCUCCUAAGGACAAGACUGCGGGUACGAGUCCCGUACGGAACG [G18A G41C U54A] cannot be ordered by yeast fitness: ≤ 0.5 for the first, ≤ 0.5 for the second.

GUUCCGUUGGCGUAAUGAUAACGCGUCUCCCUCCUAAGGAGAACACUGCGGGUUCGAGUCCCGUAAGGAACG [G18A G44C C66A] and GUUCCGUUGGCGUAAUGAUAACGCGUCUCCCUCCUAAGGAGAAGACUGCGGGUUCAAGUCCUGUACGGAUCG [G18A G56A C62U A70U] cannot be ordered by yeast fitness: ≤ 0.5 for the first, ≤ 0.5 for the second.

GUUCCGUUGGCGUAAUGAUAACGCGUCUCCCUCCUAAGGAGAAGACUGCGGGUUCGAAUCCCGUACGGAUCG [G18A G58A A70U] and GUUCCGUUGGCGUAAUGAUAACGCGUCUCCCUCCUAAGGAGAAGACUGCGGGUUCGAGUCCCGUACACAACG [G18A G67A G68C] cannot be ordered by yeast fitness: ≤ 0.5 for the first, ≤ 0.5 for the second.

Compared with GUUCCGUUGGCGUAAUGAAAACGCGUCUCCCUCCUAAGGAGAAGACUGCGGGUUCGAGUCUCGUACGGAACG [G18A U19A C61U], GUUCCGUUGGCGUAAUGAUAACGCGUCUCCCCCCUAAGGAGUGGACUGCGGGUUCGAGUCCCGUCCGGAACG [G18A U32C A42U A43G A65C] is lower in yeast fitness: 0.61 for the first, ≤ 0.5 for the second.

GUUCCGUUGGCGUAAUGAUAACGCGUCUCCCCCCUAAGGAGAUGACUGCGGGUUCGAGUCCCGUACGGAACG [G18A U32C A43U] and GUUCCGUUGGCGUAAUGAUAACGCGUCUCCCUCCAAAGGAGAAGACUGCGGGUUCGUGUCUCGUACGGAACG [G18A U35A A57U C61U] cannot be ordered by yeast fitness: ≤ 0.5 for the first, ≤ 0.5 for the second.

GUUCCGUUGGCGUAAUGAUAACGCGUCUCCCUCCAAAGGAGAAGACUCCGGGUUCGAGUCCCGUACGGAACG [G18A U35A G48C] and GUUCCGUUGGCGUAAUGCUAGCGCGUCUCCCUCCUAAGGGGAAGAGUGCUGGUUCGAGUCCCGUACGGAACG [G18C A21G A40G C46G G50U] cannot be ordered by yeast fitness: ≤ 0.5 for the first, ≤ 0.5 for the second.

GUUCCGUUGGCGUAAUGCUAGCGCGUCUCUCUCCUGAGGAGAAGACUGCAGGUUCGAGUCCCGUACGGAACG [G18C A21G C30U A36G G50A] and GUUCCGUUGGCGUAAUGCUAACGCGUCUCCCUCCUAUCGAGAAGACUGCGGGUUCGAGUCCCGUACGGAACG [G18C A37U G38C] cannot be ordered by yeast fitness: ≤ 0.5 for the first, ≤ 0.5 for the second.

Going from GUUCCGUUGGCGUAAUGCUAACGCGUCUCCCUCCUAAGGAGACGACUGCGGGUUCGAGUCCCGUACGGAACG [G18C A43C] to GUUCCGUUGGCGUAAUGCUAACGCGUCUCCCUCCUAAGGAGACGACUGCGGGUUUGAGUCCCGUACGGAACG [G18C A43C C55U], the yeast fitness falls from 0.719 to ≤ 0.5.

GUUCCGUUGGCGUAAUGCUAACGCGUCUCCCUCCUAAGGAGAGGACUGCGGGUUCGAGUUCCGUACGGAACG [G18C A43G C60U] and GUUCCGUUGGCGUAAUGCUAACGCGUCUCCCUCCUAAGGAGAAGACUGCGGGUUCGCGUCCCGUACAGUACG [G18C A57C G67A A69U] cannot be ordered by yeast fitness: ≤ 0.5 for the first, ≤ 0.5 for the second.

GUUCCGUUGGCGUAAUGCUAAGGCGUCUCCUUCCUAAGGAGAAGACUGCGGGUUCGAGACCCAUACGGAACG [G18C C22G C31U U59A G63A] and GUUCCGUUGGCGUAAUGCUAAGGCGUCUCCCUCCUAAGGAGAAGACUGCGGGUUCGAGUCCCGUAUGGAACG [G18C C22G C66U] cannot be ordered by yeast fitness: ≤ 0.5 for the first, ≤ 0.5 for the second.

GUUCCGUUGGCGUAAUGCUAACGUGUCUCCCUCCUAAGGAGAAGACUGCGAGUUCGUGUCCCGUACGGAACG [G18C C24U G51A A57U] and GUUCCGUUGGCGUAAUGCUAACGCGUCUACCUCCUAAGGAGAAGACUGCGGGUUCGAGUCCCGUACGGAACG [G18C C29A] cannot be ordered by yeast fitness: ≤ 0.5 for the first, ≤ 0.5 for the second.

GUUCCGUUGGCGUAAUGCUAACGCGUCUGCCUCUUAAGGAGAAGCCUGCGGGUUCGAGUCCCGUACGGAACG [G18C C29G C34U A45C] and GUUCCGUUGGCGUAAUGCUAACGCGUCUCGCUCCUAAGGAGAAGACUGCGGGUUCGAGUCCCGUACGGAUCG [G18C C30G A70U] cannot be ordered by yeast fitness: ≤ 0.5 for the first, ≤ 0.5 for the second.
